Among the data in paper PMC8329197, “Compounds targeting OSBPL7 increase ABCA1-dependent cholesterol efflux preserving kidney function in two models of kidney disease” (Nature Communications, 2021) are binding values, retold here.

The chains behind the UniProt entries cited, without tags or fusion partners.
UniProt O95477: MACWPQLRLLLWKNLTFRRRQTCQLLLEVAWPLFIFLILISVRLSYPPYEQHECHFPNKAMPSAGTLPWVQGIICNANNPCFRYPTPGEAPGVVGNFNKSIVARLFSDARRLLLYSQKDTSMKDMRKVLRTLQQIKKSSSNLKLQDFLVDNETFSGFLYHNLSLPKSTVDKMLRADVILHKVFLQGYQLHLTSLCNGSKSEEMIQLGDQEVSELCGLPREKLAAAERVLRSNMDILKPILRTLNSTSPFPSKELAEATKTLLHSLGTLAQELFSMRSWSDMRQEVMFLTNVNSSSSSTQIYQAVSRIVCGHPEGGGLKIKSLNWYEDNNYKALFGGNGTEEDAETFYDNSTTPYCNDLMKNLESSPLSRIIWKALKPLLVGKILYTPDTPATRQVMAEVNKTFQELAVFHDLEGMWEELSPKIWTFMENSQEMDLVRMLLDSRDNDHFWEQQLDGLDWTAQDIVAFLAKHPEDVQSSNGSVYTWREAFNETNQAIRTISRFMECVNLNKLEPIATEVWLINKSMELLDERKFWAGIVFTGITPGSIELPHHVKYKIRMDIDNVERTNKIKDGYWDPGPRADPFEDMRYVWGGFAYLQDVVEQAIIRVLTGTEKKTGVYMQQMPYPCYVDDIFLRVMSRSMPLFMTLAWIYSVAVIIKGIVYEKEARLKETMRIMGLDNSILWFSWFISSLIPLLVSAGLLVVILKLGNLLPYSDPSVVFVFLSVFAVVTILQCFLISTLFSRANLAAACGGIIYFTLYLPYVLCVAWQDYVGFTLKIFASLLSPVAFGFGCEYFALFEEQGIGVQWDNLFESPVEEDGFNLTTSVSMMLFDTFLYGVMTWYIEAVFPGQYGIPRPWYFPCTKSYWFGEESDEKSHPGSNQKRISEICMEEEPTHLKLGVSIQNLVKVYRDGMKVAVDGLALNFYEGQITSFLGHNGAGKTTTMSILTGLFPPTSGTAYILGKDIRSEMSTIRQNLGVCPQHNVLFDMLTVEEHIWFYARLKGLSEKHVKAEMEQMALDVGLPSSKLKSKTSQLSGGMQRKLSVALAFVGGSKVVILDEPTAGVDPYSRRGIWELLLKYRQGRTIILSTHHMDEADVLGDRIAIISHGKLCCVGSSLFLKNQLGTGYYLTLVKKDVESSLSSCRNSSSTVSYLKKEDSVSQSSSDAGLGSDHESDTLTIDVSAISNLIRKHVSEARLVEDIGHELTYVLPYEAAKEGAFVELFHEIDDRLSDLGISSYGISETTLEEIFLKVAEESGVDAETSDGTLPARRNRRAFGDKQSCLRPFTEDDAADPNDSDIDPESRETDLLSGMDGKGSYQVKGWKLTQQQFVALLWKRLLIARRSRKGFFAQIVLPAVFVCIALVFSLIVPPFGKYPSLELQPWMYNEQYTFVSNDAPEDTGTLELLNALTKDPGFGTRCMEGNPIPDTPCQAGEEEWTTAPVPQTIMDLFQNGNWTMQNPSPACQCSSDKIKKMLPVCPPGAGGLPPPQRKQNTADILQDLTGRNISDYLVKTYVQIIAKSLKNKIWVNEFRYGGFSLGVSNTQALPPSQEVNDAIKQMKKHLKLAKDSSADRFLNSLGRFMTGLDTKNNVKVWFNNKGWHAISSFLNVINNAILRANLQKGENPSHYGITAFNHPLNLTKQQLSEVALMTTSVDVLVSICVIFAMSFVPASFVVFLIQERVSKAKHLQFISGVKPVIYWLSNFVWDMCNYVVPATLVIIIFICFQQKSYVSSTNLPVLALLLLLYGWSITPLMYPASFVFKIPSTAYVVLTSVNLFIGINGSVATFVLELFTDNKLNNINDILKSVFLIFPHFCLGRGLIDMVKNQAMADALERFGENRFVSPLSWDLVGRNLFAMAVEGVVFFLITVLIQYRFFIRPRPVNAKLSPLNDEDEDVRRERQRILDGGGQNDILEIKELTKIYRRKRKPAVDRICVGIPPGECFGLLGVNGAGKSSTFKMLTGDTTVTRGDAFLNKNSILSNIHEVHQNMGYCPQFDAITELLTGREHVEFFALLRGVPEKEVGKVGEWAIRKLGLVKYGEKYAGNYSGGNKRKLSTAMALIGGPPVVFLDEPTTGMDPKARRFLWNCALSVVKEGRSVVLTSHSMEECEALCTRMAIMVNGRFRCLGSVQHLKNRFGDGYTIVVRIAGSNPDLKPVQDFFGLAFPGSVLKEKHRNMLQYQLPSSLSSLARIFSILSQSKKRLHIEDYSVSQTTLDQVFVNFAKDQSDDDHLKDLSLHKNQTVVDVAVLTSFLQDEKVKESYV

The target in the assay is ABCA1-FLAG (ATP-binding cassette transporter ABCA1, FLAG-tagged) (UniProt O95477). Description: co-IP; HEK293 cells transiently co-transfected with ABCA1-Flag + OSBPL7-V5; lysed 48 h later in 1% Triton X-100, 50 mM Tris-Cl pH 7.0, 150 mM NaCl with protease inhibitors; anti-Flag M2 affinity gel overnight at 4 °C, 5 washes; western blot for ABCA1 and OSBPL7-V5. Background: Immunoblotting shows a protein as a band on a membrane.

Results are given in words; binding and its absence hold for the method and conditions named. Binding seen in cells or lysates may run through a third protein. Where a sequence is shown, tags or fusion partners need not be part of it.

B1: OSBPL7-V5 (Oxysterol Binding Protein Like 7, V5-tagged) (protein, UniProt Q9BZF2 1-842)
chain: MDFQERDPPFLPESAQSSKPSSAQQASELWEVVEEPRVRLGTEGVMPERQEGHLLKKRKWPLKGWHKRYFVLEDGILHYATTRQDITKGKLHGSIDVRLSVMSINKKAQRIDLDTEDNIYHLKIKSQDLFQSWVAQLRAHRLAHRLDMPRGSLPSTAHRKVPGAQLPTAATASALPGLGPREKVSSWLRDSDGLDRCSHELSECQGKLQELHRLLQSLESLHRIPSAPVIPTHQASVTTERPKKGKRTSRMWCTQSFAKDDTIGRVGRLHGSVPNLSRYLESRDSSGTRGLPPTDYAHLQRSFWALAQKVHSSLSSVLAALTMERDQLRDMHQGSELSRMGVSEASTGQRRLHSLSTSSDTTADSFSSLNPEEQEALYMKGRELTPQLSQTSILSLADSHTEFFDACEVLLSASSSENEGSEEEESCTSEITTSLSEEMLDLRGAERCQKGGCVPGRPMGPPRRRCLPAASGPGADVSLWNILRNNIGKDLSKVSMPVQLNEPLNTLQRLCEELEYSSLLDQASRIADPCERMVYIAAFAVSAYSSTYHRAGCKPFNPVLGETYECERPDRGFRFISEQVSHHPPISACHAESENFAFWQDMKWKNKFWGKSLEIVPVGTVNVSLPRFGDHFEWNKVTSCIHNVLSGQRWIEHYGEVLIRNTQDSSCHCKITFCKAKYWSSNVHEVQGAVLSRSGRVLHRLFGKWHEGLYRGPTPGGQCIWKPNSMPPDHERNFGFTQFALELNELTAELKRSLPSTDTRLRPDQRYLEEGNIQAAEAQKRRIEQLQRDRRKVMEENNIVHQARFFRRQTDSSGKEWWVTNNTYWRLRAEPGYGNMDGAVLW
Take B1: the binding result was “no binding”.
